Source: PMC9533486
Results are given in words; binding and its absence hold for the method and conditions named. Binding seen in cells or lysates may run through a third protein. A yes stands for co-enrichment or nearness to the bait. Other partners may have been found.

Chains of the proteins cited; added tags and fusions are not shown.
UniProt Q9Y297: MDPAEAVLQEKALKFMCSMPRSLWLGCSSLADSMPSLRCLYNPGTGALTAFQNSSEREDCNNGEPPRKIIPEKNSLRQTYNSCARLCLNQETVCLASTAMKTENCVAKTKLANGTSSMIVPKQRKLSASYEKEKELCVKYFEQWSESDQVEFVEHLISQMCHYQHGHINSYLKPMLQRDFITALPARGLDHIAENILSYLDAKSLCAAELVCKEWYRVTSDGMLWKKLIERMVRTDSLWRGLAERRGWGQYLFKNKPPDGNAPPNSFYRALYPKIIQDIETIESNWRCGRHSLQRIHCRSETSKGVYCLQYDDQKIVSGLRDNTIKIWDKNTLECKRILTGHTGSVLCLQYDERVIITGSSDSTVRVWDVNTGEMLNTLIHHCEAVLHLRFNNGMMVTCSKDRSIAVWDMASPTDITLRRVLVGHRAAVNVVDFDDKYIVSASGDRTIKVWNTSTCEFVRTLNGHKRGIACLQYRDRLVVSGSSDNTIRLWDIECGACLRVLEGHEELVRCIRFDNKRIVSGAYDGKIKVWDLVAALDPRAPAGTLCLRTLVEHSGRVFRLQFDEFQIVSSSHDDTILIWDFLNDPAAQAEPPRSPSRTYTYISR
UniProt P01106: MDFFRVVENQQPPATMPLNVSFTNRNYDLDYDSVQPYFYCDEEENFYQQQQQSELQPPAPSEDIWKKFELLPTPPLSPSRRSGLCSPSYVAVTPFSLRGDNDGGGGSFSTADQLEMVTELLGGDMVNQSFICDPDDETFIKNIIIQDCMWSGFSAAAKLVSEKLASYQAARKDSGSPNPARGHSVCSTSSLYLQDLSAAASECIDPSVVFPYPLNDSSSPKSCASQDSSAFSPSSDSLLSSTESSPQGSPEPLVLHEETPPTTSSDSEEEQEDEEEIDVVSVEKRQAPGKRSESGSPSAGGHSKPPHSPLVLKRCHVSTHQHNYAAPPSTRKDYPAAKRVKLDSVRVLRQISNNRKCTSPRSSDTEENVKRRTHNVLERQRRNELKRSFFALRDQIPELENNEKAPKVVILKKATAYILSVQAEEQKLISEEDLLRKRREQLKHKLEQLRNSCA

Biological target: β-TrCP (Beta-transducin repeat containing E3 ubiquitin protein ligase) (human (endogenous in CNE2 and 5-8F)) (UniProt Q9Y297)
Experiment: affinity purification with mass spectrometry; immunoprecipitation with β-TrCP antibody from CNE2 cells, followed by LC-MS/MS

c-Myc (from UniProt P01106 1-454)
binding: binds
